# Test results reported in patent publication US4921960A, “Quinoline thioethers” (priority 1987, dated 1990).
# Test system: picrotoxin induced convulsions in rats
# Format: in vivo, rat
# Conditions: pretreated rats; picrotoxin 10 mg/kg s.c.
structure (smiles),measurement,value
CN1C(=O)CN=C(c2ccccc2)c2cc(Cl)ccc21 [diazepam],Influence on picrotoxin induced lethal convulsions,remained unchanged
